Laboratory results: the supplement of paper PMC6119338
Some of the results follow. Most values come without repeats; read them as rough.

Test system: Plasmodium berghei sporozoites
Experiment: residual sporozoite gliding motility relative to DMSO control; higher = less inhibition of motility
Settings: 10 µM; incubation time 30 min

Residual sporozoite gliding motility, > 50%:
COc1ccc(C(O)(CCC(C)C)C(CN2CCOCC2)c2ccc(Cl)cc2)cc1 (stereo unspecified)
O=C(Nc1ccc(N2CCN(Cc3ccccc3)CC2)cc1)c1cccs1
Cc1ccc(C2CC(C(F)(F)F)n3nc(C(=O)N4CCN(C(c5ccccc5)c5ccccc5)CC4)cc3N2)cc1 (stereo unspecified)
CCOC(=O)c1cn(CC)c2cc(N(C)CCc3ccc(OC)c(OC)c3)c(F)cc2c1=O
CCCCCCC(O)(c1ccc(F)cc1)C(CN1CCOCC1)c1ccccc1 (stereo unspecified)
Clc1cc(Br)ccc1-c1ccc(CNCC2CCNCC2)o1
Cc1ccc2nc(C)cc(Nc3cccc(C(F)(F)F)c3)c2c1
N#Cc1nc(Cc2cccc3ccccc23)oc1N1CCN(C(c2ccccc2)c2ccccc2)CC1
CCOc1cc2c(cc1OCC)C(c1cc(C)c(O)c(C)c1)NCC2 (stereo unspecified)
COc1cccc(Nc2nc(N)c3ccccc3n2)c1
Cc1ccc(CN2CCC(C(=O)Nc3ccc(-c4cc5ccccc5[nH]4)cc3)CC2)o1
CC1CN(C(=O)c2sc3ccccc3c2Cl)CC(C)O1 (stereo unspecified)
O=C(Nc1ccc(C23CC4CC(CC(c5ccccc5)(C4)C2)C3)cc1)c1cccs1
O=C(Nc1ccc(Br)cc1)Nc1cccc(Cl)c1
CSc1ccccc1C(=O)Nc1nc(-c2ccccn2)cs1
CC(C)(C)CC(C)(C)NCC(O)COc1ccc2c(c1)CCC2 (stereo unspecified)
CCCOCc1cc(CN2CCN(c3cccc(Cl)c3)CC2)c(O)c2ncccc12
CC(=O)Nc1nnc(SCc2c(C)cc(C(C)(C)C)cc2C)s1
COc1cc(-c2nc(-c3ccc(Sc4ccccc4)cc3)c(-c3ccccc3)[nH]2)cc(OC)c1O
O=C(NC1CCN(Cc2ccccc2)CC1)c1cc(-c2ccncc2)nc2ccc(Cl)cc12
COc1ccc(-c2nc3cc(Cc4ccc5[nH]c(-c6ccc(OC)cc6)nc5c4)ccc3[nH]2)cc1
Cc1cccc(Nc2nc(N)c3ccccc3n2)c1
CCOc1ccc(Nc2c3ccccc3nc3ccccc23)cc1
CN1CCN(c2nc(Nc3ccc(O)cc3)nc3ccccc23)CC1
OC1CCCCC1C1(NC(=S)Nc2ccccc2)CCCCC1 (stereo unspecified)
Cc1ccc(Cl)cc1N1CCN(CCCNC(=O)C2CCN(c3nc4ccccc4[nH]3)CC2)CC1
O=C(O)C1Cc2c([nH]c3ccccc23)C(c2ccc(Cl)cc2Cl)N1 (stereo unspecified)
CCOC(=O)c1c(C)n(-c2ccc(Cl)cc2)c2ccc(OC(=O)C=Cc3ccccc3)cc12
Cc1nc2ccccc2c(O)c1CC=C(Cl)Cl
COc1ccc(N2CCN(C(CNC(=O)C3CCCCC3)c3ccc4c(c3)OCO4)CC2)cc1 (stereo unspecified)
Cc1ccc(NC(=O)Nc2cccc(Cl)c2)cc1F
Cc1cc(NCCN2CCCCC2)c2ccc3ccccc3c2n1
CCOc1cc2c(cc1OCC)C(c1cc(OC)c(O)cc1Cl)NCC2 (stereo unspecified)
COc1cc(OC)c(N(C)C(=O)c2cc3c(s2)-c2ccccc2S(=O)(=O)C3)cc1Cl
CCN(Cc1ccccc1)C1CCN(Cc2cc(Br)ccc2O)CC1
Cc1ccc(C)c(-c2csc(Nc3ccc(C)c(C)c3)n2)c1

Of the compounds above, 2 have a CF3 group:
Residual sporozoite gliding motility, > 50%:
Cc1ccc(C2CC(C(F)(F)F)n3nc(C(=O)N4CCN(C(c5ccccc5)c5ccccc5)CC4)cc3N2)cc1 (stereo unspecified)
Cc1ccc2nc(C)cc(Nc3cccc(C(F)(F)F)c3)c2c1
